For assay [1], the target named is SKP2 (wild type) in transfected 293 T cells (UniProt Q13309). Kind of assay: co-IP; 293 T cells transfected with the indicated plasmids, whole-cell lysate (weak RIPA lysis buffer), immunoprecipitation and immunoblotting. (In general: Immunoblotting shows a protein as a band on a membrane.)
The target in assay [2] is S-phase kinase-associated protein 2 (SKP2), endogenous (human (endogenous in 293 T)) (UniProt Q13309). Kind of assay: co-IP; endogenous proteins in 293 T whole-cell lysate (weak RIPA lysis buffer), immunoprecipitation with SKP2 antibody or PDCD4 antibody, immunoblotting.

Chains of the proteins cited; added tags and fusions are not shown.
UniProt Q13309: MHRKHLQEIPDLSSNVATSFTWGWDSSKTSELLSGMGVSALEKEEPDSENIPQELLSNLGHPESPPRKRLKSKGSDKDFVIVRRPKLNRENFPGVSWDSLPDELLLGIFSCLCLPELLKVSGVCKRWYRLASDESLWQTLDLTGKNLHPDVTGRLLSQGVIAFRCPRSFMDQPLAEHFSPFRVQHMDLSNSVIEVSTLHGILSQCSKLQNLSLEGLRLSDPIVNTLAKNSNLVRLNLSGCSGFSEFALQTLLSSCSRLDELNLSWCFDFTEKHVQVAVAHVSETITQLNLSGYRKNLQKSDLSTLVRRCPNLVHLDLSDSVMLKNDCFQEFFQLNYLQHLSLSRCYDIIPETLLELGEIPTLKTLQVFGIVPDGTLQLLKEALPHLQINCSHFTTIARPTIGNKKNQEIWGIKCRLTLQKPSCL

No constants are given. Whether binding was seen depends on the method and setting. Binding seen in cells or lysates may run through a third protein. Some binding calls cover weakened binding; strength is not graded here.

B1: Programmed cell death protein 4 (PDCD4), endogenous (protein, UniProt Q53EL6 1-469)
chain: MDVENEQILNVNPADPDNLSDSLFSGDEENAGTEEIKNEINGNWISASSINEARINAKAKRRLRKNSSRDSGRGDSVSDSGSDALRSGLTVPTSPKGRLLDRRSRSGKGRGLPKKGGAGGKGVWGTPGQVYDVEEVDVKDPNYDDDQENCVYETVVLPLDERAFEKTLTPIIQEYFEHGDTNEVAEMLRDLNLGEMKSGVPVLAVSLALEGKASHREMTSKLLSDLCGTVMSTTDVEKSFDKLLKDLPELALDTPRAPQLVGQFIARAVGDGILCNTYIDSYKGTVDCVQARAALDKATVLLSMSKGGKRKDSVWGSGGGQQSVNHLVKEIDMLLKEYLLSGDISEAEHCLKELEVPHFHHELVYEAIIMVLESTGESTFKMILDLLKSLWKSSTITVDQMKRGYERIYNEIPDINLDVPHSYSVLERFVEECFQAGIISKQLRDLCPSRGRKRFVSEGDGGRLKPESY
B1: the binding result in assay [1] and in assay [2] was “binds” each time.

B2: PDCD4 (S67A) mutant (protein, UniProt Q53EL6 1-469)
chain: MDVENEQILNVNPADPDNLSDSLFSGDEENAGTEEIKNEINGNWISASSINEARINAKAKRRLRKNASRDSGRGDSVSDSGSDALRSGLTVPTSPKGRLLDRRSRSGKGRGLPKKGGAGGKGVWGTPGQVYDVEEVDVKDPNYDDDQENCVYETVVLPLDERAFEKTLTPIIQEYFEHGDTNEVAEMLRDLNLGEMKSGVPVLAVSLALEGKASHREMTSKLLSDLCGTVMSTTDVEKSFDKLLKDLPELALDTPRAPQLVGQFIARAVGDGILCNTYIDSYKGTVDCVQARAALDKATVLLSMSKGGKRKDSVWGSGGGQQSVNHLVKEIDMLLKEYLLSGDISEAEHCLKELEVPHFHHELVYEAIIMVLESTGESTFKMILDLLKSLWKSSTITVDQMKRGYERIYNEIPDINLDVPHSYSVLERFVEECFQAGIISKQLRDLCPSRGRKRFVSEGDGGRLKPESY
As to B2, in assay [1], the binding entry was “no binding”.

(Values after article PMC6375223.)
